According to the supplement of paper PMC8728848:
This is one part of the list.

Experiments:
Assay in all cases: glycan array binding signal (z-score within array); higher = stronger binding
Details in all cases: glycan notation: IUPAC condensed, linker removed
[1] = molecular target: Gal(b1-4)GlcNAc(b1-6)GalNAc
In short: (§1)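 Glycan array data came from 3228 arrays in the Consortium for Functional Glycomics database, and only arrays with an available protein sequence were kept. Glycan names were put into IUPAC-condensed notation, and columns mapping to the same glycan were averaged. The binding signal is a within-array Z-score, averaged across arrays of one protein sequence run at different concentrations or buffers and across linkers. A negative Z-score can be read as non-binding.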

[2] = molecular target: Gal(b1-4)GlcNAc(b1-6)[Gal(b1-3)]GalNAc
In short: as §1

[3] = molecular target: Gal(b1-4)GlcNAc(b1-6)[Gal(b1-4)GlcNAc(b1-3)]GalNAc
In short: as §1

Gal(b1-4)GlcNAc6P = molecular target: Gal(b1-4)GlcNAc6P
In short: as §1

Gal(b1-6)Gal = molecular target: Gal(b1-6)Gal
In short: as §1

Gal3S(b1-3)GalNAc = molecular target: Gal3S(b1-3)GalNAc
In short: as §1

Gal3S(b1-3)GlcNAc = molecular target: Gal3S(b1-3)GlcNAc
In short: as §1

[4] = molecular target: Gal3S(b1-3)[Fuc(a1-4)]GlcNAc
In short: as §1

Gal3S(b1-4)Glc = molecular target: Gal3S(b1-4)Glc
In short: as §1

Gal3S(b1-4)Glc6S = molecular target: Gal3S(b1-4)Glc6S
In short: as §1

Gal3S(b1-4)GlcNAc = molecular target: Gal3S(b1-4)GlcNAc
In short: as §1

[5] = molecular target: Gal3S(b1-4)[Fuc(a1-3)]Glc6S
In short: as §1

[6] = molecular target: Gal3S(b1-4)[Fuc(a1-3)]GlcNAc
In short: as §1

[7] = molecular target: Gal3S(b1-4)[Fuc(a1-3)]GlcNAc6S
In short: as §1

Gal3S4S(b1-4)GlcNAc = molecular target: Gal3S4S(b1-4)GlcNAc
In short: as §1

Gal3S6S(b1-4)GlcNAc = molecular target: Gal3S6S(b1-4)GlcNAc
In short: as §1

Gal3S6S(b1-4)GlcNAc6S = molecular target: Gal3S6S(b1-4)GlcNAc6S
In short: as §1

Gal4S(b1-4)GlcNAc = molecular target: Gal4S(b1-4)GlcNAc
In short: as §1

Gal4S6S(b1-4)GlcNAc = molecular target: Gal4S6S(b1-4)GlcNAc
In short: as §1

Gal6P(b1-4)GlcNAc = molecular target: Gal6P(b1-4)GlcNAc
In short: as §1

Gal6S(b1-3)GlcNAc = molecular target: Gal6S(b1-3)GlcNAc
In short: as §1

Gal6S(b1-3)GlcNAc6S = molecular target: Gal6S(b1-3)GlcNAc6S
In short: as §1

Gal6S(b1-4)Glc = molecular target: Gal6S(b1-4)Glc
In short: as §1

B1: PhypaEULS3 (Physcomitrella patens) (protein)
chain: MLPVRLHCKADPNFNLAAVPGQGPVMVPFSPNDDFQVWYKDVTMSTRVKDETGSSAFSLINKATGQALRHAPEDLAQCLLADYDSNALDQTVLWTMSEDMGQGYCCIRLASQITRNLDVFRGDKKSGGVKEGSPVITFAWKKQDNQIWKMITAILEQKLISEEDLNSAVDHHHHHH
glycan array binding signal (z-score) [1]: -1.37 | glycan array binding signal (z-score) [2]: 0.337 | glycan array binding signal (z-score) [3]: -0.325 | glycan array binding signal (z-score) (Gal(b1-4)GlcNAc6P): -1.38 | glycan array binding signal (z-score) (Gal(b1-6)Gal): 0.62 | glycan array binding signal (z-score) (Gal3S(b1-3)GalNAc): -0.127 | glycan array binding signal (z-score) (Gal3S(b1-3)GlcNAc): 0.616 | glycan array binding signal (z-score) [4]: -0.439 | glycan array binding signal (z-score) (Gal3S(b1-4)Glc): -1.2 | glycan array binding signal (z-score) (Gal3S(b1-4)Glc6S): -0.039 | glycan array binding signal (z-score) (Gal3S(b1-4)GlcNAc): 0.855 | glycan array binding signal (z-score) [5]: 0.258 | glycan array binding signal (z-score) [6]: 1 | glycan array binding signal (z-score) [7]: 2.66 | glycan array binding signal (z-score) (Gal3S4S(b1-4)GlcNAc): -0.136 | glycan array binding signal (z-score) (Gal3S6S(b1-4)GlcNAc): 0.683 | glycan array binding signal (z-score) (Gal3S6S(b1-4)GlcNAc6S): 0.551 | glycan array binding signal (z-score) (Gal4S(b1-4)GlcNAc): -1.71 | glycan array binding signal (z-score) (Gal4S6S(b1-4)GlcNAc): -0.245 | glycan array binding signal (z-score) (Gal6P(b1-4)GlcNAc): 0.132 | glycan array binding signal (z-score) (Gal6S(b1-3)GlcNAc): 1.98 | glycan array binding signal (z-score) (Gal6S(b1-3)GlcNAc6S): 4.14 | glycan array binding signal (z-score) (Gal6S(b1-4)Glc): 0.381
